These are yes or no findings as the source states them, for the method shown. Some results given as binding are weak or reduced against the parent protein; the word gives no strength.
Molecular target: T1, mouse TMEM16A(ac) isoform (mouse), Q8BHY3
T1 chain: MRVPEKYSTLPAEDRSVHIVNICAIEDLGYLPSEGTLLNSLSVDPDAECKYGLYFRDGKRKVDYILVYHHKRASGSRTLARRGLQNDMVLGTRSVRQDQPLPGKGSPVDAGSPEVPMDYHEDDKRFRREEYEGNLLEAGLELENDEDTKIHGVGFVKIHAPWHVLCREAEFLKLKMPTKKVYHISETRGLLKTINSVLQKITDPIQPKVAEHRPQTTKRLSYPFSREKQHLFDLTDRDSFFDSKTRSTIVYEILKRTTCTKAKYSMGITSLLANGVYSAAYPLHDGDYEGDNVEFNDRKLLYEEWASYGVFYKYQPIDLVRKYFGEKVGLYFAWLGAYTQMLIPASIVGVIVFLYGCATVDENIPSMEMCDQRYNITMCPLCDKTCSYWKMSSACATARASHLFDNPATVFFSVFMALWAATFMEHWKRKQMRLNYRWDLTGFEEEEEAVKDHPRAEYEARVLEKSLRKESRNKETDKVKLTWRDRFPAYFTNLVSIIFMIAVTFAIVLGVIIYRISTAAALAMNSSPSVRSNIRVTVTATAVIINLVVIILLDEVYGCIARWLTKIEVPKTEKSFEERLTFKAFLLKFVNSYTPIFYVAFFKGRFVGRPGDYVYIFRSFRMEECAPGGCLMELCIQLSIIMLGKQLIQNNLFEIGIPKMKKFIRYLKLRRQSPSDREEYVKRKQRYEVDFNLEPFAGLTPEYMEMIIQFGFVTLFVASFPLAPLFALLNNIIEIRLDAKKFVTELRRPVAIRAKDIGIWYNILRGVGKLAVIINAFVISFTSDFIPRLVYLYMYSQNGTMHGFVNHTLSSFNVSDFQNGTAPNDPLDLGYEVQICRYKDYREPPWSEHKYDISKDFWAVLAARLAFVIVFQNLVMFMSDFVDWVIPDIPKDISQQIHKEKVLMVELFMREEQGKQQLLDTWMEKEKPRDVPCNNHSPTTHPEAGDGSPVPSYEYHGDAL
Test: cryo-EM structure; purified mTMEM16A at 3 mg/ml in 0.12% digitonin, 20 mM HEPES pH 7.5, 150 mM NaCl, 0.5 mM CaCl2; single particle reconstruction with C2 symmetry imposed, 6.6 Å; poly-alanine model; both purified
Conditions: remark: other sources report otherwise

binding: binds
B1: mouse TMEM16A(ac) isoform, Q8BHY3 1-960 (natural protein)
chain: T1 chain

From PMC5470873
